Some of these results come from one statement about several compounds together. Where no end group is shown, it is not given here.
Key:
[1] = system: pleural defects in swine lungs; assay: Burst pressure of peptide hydrogels as air sealants on pleural defects of swine lungs; conditions: injection method, 16 G pleural defect
Description: Swine lungs were obtained from freshly euthanized pigs. An endotracheal tube was inserted through the trachea and primary bronchus into the lung of interest. Pressure was supplied to the lungs with the use of a manual endotracheal intubation pump. The trachea was tied off to prevent air leakage around the tube. The primary bronchus of the other lung was clamped to direct all airflow to the lung of interest. A manometer was used to measure the pressure of air directed into the lungs to induce expansion.
The self-assembling peptide hydrogels were comprised of Ac-RADARADARADARADA-NH2 (i.e. RADA16) (SEQ ID NO: 1), Ac-KLDLKLDLKLDL-NH2 (i.e. KLD12) (SEQ ID NO: 3), or Ac-IEIKIEIKIEIKI-NH2 (i.e. IEIK13) (SEQ ID NO: 2) with either RADA16 or KLD12 alone or mixed with 0.250 M calcium chloride. If alone, the peptides were reconstituted in deionized water. If, however the peptides were reconstituted with 0.250 M calcium chloride solution, the peptides were reconstituted first in deionized water, and subsequently, a 0.500 M solution of calcium chloride was mixed in at a 1:1 ratio.
The pleural defects were created using three different methods to measure the efficacy of the self-assembling peptide hydrogels: (1) A 16 gauge needle was used to puncture the lung and pleura, (2) A 5×5 mm area was measured and the lung and pleura were clipped using a pair of surgical scissors, and (3) A lobectomy (i.e. a complete resection of one lobe of the lung of interest). A 0.9% saline solution was streamed over the defect area and the location of the defect was identified by using the endotracheal intubation pump system to introduce air and observing the release of air bubbles.
Once the location of the defect was identified, the hydrogels were applied to the defect area via two different methods: (1) the hydrogel was applied topically by injecting through a syringe onto the defect area, and (2) the hydrogel was injected into the defect through an 18 gauge needle with overflow to cover the defect area topically. […]

[2] = Rheological properties of pH adjusted peptide solutions and hydrogels (stress/frequency sweep); type: physicochemical
Method: Based on the visual observation of the effect of pH level on the properties of the peptide solutions, the effect on the rheological properties of the peptide solutions after adjusting their pH level to 3.4 (PuraMatrix® and KLD12) or 3.7 (IEIK13) was evaluated. If the pH levels of peptide solutions are higher than 3.5 (PuraMatrix® and KLD12) or 3.7 (IEIK13), the peptide solution began phase separation becoming cloudy. The rheological properties of PuraMatrix®, KLD12 and IEIK13 solutions were higher at pH 3.4. The results are shown in FIG. 2 for KLD12 1%, FIG. 3 for IEIK13 1%, and FIGS. 4-5 for PuraMatrix® 1% and 2.5%, respectively. Stress sweep tests were performed at 10 rad/s. Frequency sweep tests were performed at 1 Pa.
Based on the results of the effect on the rheological properties of the peptide solutions after adjusting their pH level to 3.4 (PuraMatrix® and KLD12) or 3.7 (IEIK13), the effect on the rheological properties of the peptide solutions at various pH levels was evaluated. […] The rheological properties of peptides were evaluated at various concentrations using a rheometer (DHR-1, TA Instruments) with 20 mm plates. The results are shown in FIG. 6A for PuraMatrix® 2.5% solution and FIG. 6B for IEIK13 1.5% solution, respectively. Frequency sweep tests were performed from 1 rad/sec to 10 rad/sec at 1 Pa and the storage modulus at 1 rad/sec was selected for data. […]

Substance	burst pressure ([1]; 1.5% IEIK13) [cm H2O]	burst pressure ([1]; 2.5% IEIK13) [cm H2O]	pH level at which the peptide solution began phase separation becoming cloudy [2]	burst pressure ([1]; 2.5% RADA16 with 0.250 M CaCl2) [cm H2O]
Ile-Glu-Ile-Lys-Ile-Glu-Ile-Lys-Ile-Glu-Ile-Lys-Ile [IEIK13]	> 35	> 35	–	–
KLDLKLDLKLDL [KLD12, Ac-…-NH2]	–	–	higher than 3.5	–
Arg-Ala-Asp-Ala-Arg-Ala-Asp-Ala-Arg-Ala-Asp-Ala-Arg-Ala-Asp-Ala [PuraMatrix ®]	–	–	higher than 3.5	> 35
